Data published in patent US20220125845A1 (GUANGDONG TCRCURE BIOPHARMA TECHNOLOGY, published 2022).
No constants are given. Whether binding was seen depends on the method and setting. Some entries that bind do so weakly or less than the wild type.

Target: ALPP-His protein (the sheet prints only '% αALPP CAR')
Experiment: flow cytometry of transduced primary human T cells stained with 0.1 ug ALPP-His protein and an anti-His antibody [right panel]

B1: A02-28H CAR (protein)
chain: QVQLKESGPGLVAPSQSLSITCTVSGFSLTSYGVSWVRQPPRKGLEWLGVIWEDGSTNYHSALISRLSINKDNSKSQVFLKLNSLQTDDTATYYCAKPHYGSSYVGAMEYWGQGTSVTVSSEKGRSGGGGSGGGGSGGGGSDIQMTQSPASLTASVGETVTITCRASENIYSYVAWYQQKQGKSPQFLVYNAKSLAEGVPSRFSGSGSGTQFSLKINSLQPEDFGNYYCQHHYVSPWTFGGGTKLEIRRYVIEVMYPPPYLDNEKSNGTIIHVKGKHLCPSPLFPGPSKPMALIVLGGVAGLLLFIGLGIFFRFSVVKRGRKKLLYIFKQPFMRPVQTTQEEDGCSCRFPEEEEGGCELRVKFSRSADAPAYQQGQNQLYNELNLGRREEYDVLDKRRGRDPEMGGKPRRKNPQEGLYNELQKDKMAEAYSEIGMKGERRRGKGHDGLYQGLSTATKDTYDALHMQALPPR
  binding: binds
